Measured values reported in patent US10391143B2, “Mitochondrial-derived peptide MOTS3 regulates metabolism and cell survival” (THE REGENTS OF THE UNIVERSITY OF CALIFORNIA, priority 2013, dated 2019).
At least one peptide structure holds a part that was inferred or is arguable (an end, a ring closure or a residue). Ends that are not written are not given here.

Key:
cells [1] = experiment: Exogenous MOTS3 treatment: mitochondrial activity (OCR by Seahorse, MTT reduction), cellular ATP, autophagy; assay type: cell-based
cells [2] = experiment: Exogenous MOTS3 treatment: glucose uptake and lactate secretion in culture; assay type: cell-based
AMPK [3] = experiment: AMPK activation after MOTS3 treatment of cells; assay type: cell-based; settings: 96 hours of treatment, versus control
cells [4] = experiment: Cellular proliferation and survival in glucose or galactose medium; assay type: cell-based
cells [5] = experiment: Cellular senescence by senescence associated β-galactosidase staining; assay type: cell-based; settings: 8 days of exogenous treatment
mice = experiment: 4 days of MOTS3 injections in mice: body weight, food intake, liver mitochondrial respiration, glucose, insulin; assay type: in vivo
HEK293 cells [6] = experiment: Microarray analysis of gene expression; assay type: cell-based; settings: 10 μM
HEK293 cells [7] = experiment: Unbiased metabolomic profiling; assay type: cell-based; settings: for number of metabolites significantly altered, of the 356 named metabolites: exogenous synthetic MOTS-c 10 uM
AMPK [8] = experiment: Western blotting of AMPK signaling (AMPKα, ACC, CPT-1, GLUT4, Akt); assay type: cell-based
HEK293 cells [9] = experiment: Glucose and lactate assay (culture medium, 2-NBDG); assay type: cell-based; settings: 10 μM
HEK293 cells [10] = experiment: Real-time oxygen consumption rate (Seahorse XF); assay type: cell-based
HEK293 cells [11] = experiment: Cell number under glucose or galactose medium; assay type: cell-based
outbred CD-1 male mice = experiment: Acute 4-day MOTS-c treatment in mice fed a normal diet; assay type: in vivo; settings: 5 mg/kg/day, BID, 4 days
[12] = test system: CD-1 mice fed a high-fat diet; experiment: 8-week MOTS-c treatment in mice fed a high-fat diet or matched control diet; assay type: in vivo
[13] = test system: C57BL/6 mice fed a high-fat diet; experiment: Hyperinsulinemic-euglycemic clamp studies; assay type: in vivo; settings: 5 mg/kg/day IP, 7 days, HFD
[14] = test system: soleus muscles of male C57BL/6 mice; experiment: Ex-vivo soleus muscle strip glucose uptake; assay type: in vivo
C57BL/6 mice fed a HFD = experiment: MOTS-c on high-fat diet in C57BL/6 mice; assay type: in vivo; settings: 5.0 mg/kg/day IP
ZDF diabetic rats = experiment: Blood sugar in ZDF diabetic rats after 6 days of treatment; assay type: in vivo; settings: IV daily for 6 days; MOTS-c 1 mg per 400 gram rat
Protocol: FIG. 33 describes Day 6 fasting blood sugars. ZDF diabetic rats were followed until their blood sugar was […], at which point treatment was initiated with one of two doses of MOTS-c or insulin, given IV at 8 AM for 6 days. 6 rats per group were used. Fasting blood sugars were measured after 6-days. ANOVA and student t-tests were used for analysis and p-values.
FIG. 34 describes absolute change in blood glucose at Day 6. In the same experiment described in FIG. 33, absolute changes in blood glucose are shown.

breast cancer (4T1) = experiment: Breast cancer subcutaneous allograft mouse model; assay type: in vivo
[15] = test system: prostate cancer cell (22Rv1); experiment: Prostate cancer cell proliferation in vitro; assay type: cell-based
prostate cancer (22Rv1) = experiment: Prostate cancer subcutaneous allograft mouse model; assay type: in vivo
[16] = test system: 4 different prostate cancer cell lines; experiment: Proliferation of prostate cancer cell lines by MTT reduction; assay type: cell-based; settings: 48-72 hours, optimum growth conditions, dose dependent
[17] = HFD fed mice, 0.5 mg/kg/day IP, 8 weeks

Sequence: MRWQEMGYIFYPRKLR [MOTS3, MRWQEMGYIFYPRKLR]
- autophagy (cells [1]; exogenous treatment): increased autophagy
- cellular ATP levels (cells [1]; exogenous treatment): reduced cellular ATP levels
- mitochondrial activity (MTT) (cells [1]; exogenous treatment): reduced
- mitochondrial activity (cells [1]; exogenous treatment with synthetic peptides): inhibited mitochondrial activity
- lactate secretion (cells [2]): lactate secretion was increased
- glucose uptake (cells [2]; residual glucose in culture medium and fluorescence-labeled glucose analog uptake): increase in glucose uptake
- AMPK activation (AMPK [3]): significantly higher
- cellular proliferation and survival (cells [4]; galactose medium): but not galactose medium
- cellular proliferation and survival (cells [4]; glucose medium): reduced cellular proliferation and survival
- cellular senescence (senescence associated β-galactosidase staining) (cells [5]): induced cellular senescence
- blood glucose levels (mice): significantly reduced blood glucose levels
- insulin levels (mice): higher insulin levels
- liver mitochondrial respiration capacity (mice; both tested doses (0.5 and 5.0 mg/kg/day)): diminished
- body weight (mice; i.p., 0.5 or 5.0 mg/kg/day): significant weight loss
- food intake (mice; i.p., 0.5 or 5.0 mg/kg/day): without significant alteration of food intake
- gene expression in pathways involved in cellular metabolism and inflammation (HEK293 cells [6]): profound effect on gene expression
- global gene expression profile (principal component analysis) (HEK293 cells [6]; by 72 hours): clear global gene expression profile shift
- cellular redox homeostasis, ratio of reduced to oxidized glutathione (GSH/GSSG) (HEK293 cells [7]): did not perturb cellular redox homeostasis
- other long-chain fatty acids (HEK293 cells [7]): significantly reduced
- total glutathione levels (HEK293 cells [7]; 72 hours after MOTS-c treatment): total glutathione levels were decreased
- pentose phosphate pathway (PPP) intermediates, including R5P (HEK293 cells [7]; 72 hours of exogenous MOTS-c, 10 μM): Reduced levels of PPP intermediates
- increase in endogenous AICAR concentration (HEK293 cells [7]; HEK293, 72 hours of exogenous MOTS-c treatment): > 20 fold
- essential fatty acids levels (HEK293 cells [7]; HEK293 cells treated with MOTS-c): reduced levels of essential fatty acids
- ADP-ribose and R5P levels (HEK293 cells [7]; MOTS-c treated cells): reduced levels of ADP-ribose and R5P
- NAD+ levels (HEK293 cells [7]; MOTS-c treated cells): increased levels of NAD^+
- TCA cycle intermediates (HEK293 cells [7]; exogenous MOTS-c): depletion of TCA cycle intermediates
- Myristoyl-CoA (β-oxidation intermediate) (HEK293 cells [7]; exogenous MOTS-c 10 uM): significantly increased
- higher levels of carnitine shuttles, carnitine and deoxycarnitine (HEK293 cells [7]; exogenous MOTS-c, compared with stably over-expressing cells): also observed, but to a lesser extent
- number of metabolites significantly altered, of the 356 named metabolites (HEK293 cells [7]; 24 hours): 49
- number of metabolites significantly altered, of the 356 named metabolites (HEK293 cells [7]; 72 hours): 177
- glycolysis (mass spectrometry analysis of intermediates) (HEK293 cells [7]; within 24 hours of MOTS-c treatment): increased glycolysis
- phosphorylation of Akt at Ser-473 (AMPK [8]): promotes the phosphorylation of Akt at Ser-473
- CPT-1 protein levels (AMPK [8]; 10 μM, 72 hours): increased
- GLUT4 protein levels (AMPK [8]; 10 μM, 72 hours): increased
- phosphorylation of ACC (Ser79) (AMPK [8]; 10 μM, 72 hours): led to the phosphorylation
- phosphorylation of AMPKα (Thr172) (AMPK [8]; 10 μM, 72 hours): led to the phosphorylation
- glucose uptake (HEK293 cells [9]): increased glucose uptake
- lactate production (HEK293 cells [9]): increased
- basal oxygen consumption rate (OCR) (HEK293 cells [10]): reduced
- maximum respiratory capacity (HEK293 cells [10]): reduced
- proton leakage (HEK293 cells [10]): reduced proton leakage
- cellular proliferation (HEK293 cells [11]; abundant glucose): reduced cellular proliferation
- cellular proliferation (HEK293 cells [11]; galactose medium): failed to affect cells
- basal levels of plasma IL-6 (outbred CD-1 male mice): significantly reduced
- basal levels of plasma TNFα (outbred CD-1 male mice): significantly reduced
- blood glucose levels (outbred CD-1 male mice): modest reductions
- body weight (outbred CD-1 male mice): modest reductions
- food intake (outbred CD-1 male mice): modest reductions
- AMPK activation in the muscle ([12]; HFD fed mice): promoted AMPK activation
- GLUT4 expression in the muscle ([12]; HFD fed mice): promoted
- hepatic lipid accumulation (liver H&E staining) [12, 17]: ameliorated hepatic lipid accumulation
- hyperinsulinemia [12, 17]: prevented hyperinsulinemia
- HFD-induced obesity (body weight) ([12]; high-fat diet 60% by calories, 0.5 mg/kg/day IP, 8 weeks): remarkably prevented HFD-induced obesity
- caloric consumption ([12]; high-fat diet, 0.5 mg/kg/day IP, 8 weeks): identical between the groups
- body weight ([12]; normal diet, 0.5 mg/kg/day IP, 8 weeks): no effect on body weight
- increase in the exogenous glucose infusion rate (GIR) [13]: ~30%
- insulin-stimulated glucose disposal rate (IS-GDR) [13]: significantly enhanced
- insulin-stimulated 2-deoxyglucose uptake into soleus muscles of older mice (insulin sensitivity) ([14]; 12-month mice, 5 mg/kg/day IP, 7 days): restored sensitivity comparable to young animals
- glucose uptake into soleus muscle stimulated with insulin ex vivo ([14]; physiological dose of human insulin): enhanced glucose uptake into soleus muscle
- HFD-induced hyperinsulinemia (C57BL/6 mice fed a HFD; HFD): prevented HFD-induced hyperinsulinemia
- food intake (C57BL/6 mice fed a HFD; HFD): not due to less food intake
- visceral fat (C57BL/6 mice fed a HFD; HFD): reduced levels of visceral fat
- obesity (body weight) (C57BL/6 mice fed a HFD; HFD 60% by calories): prevented obesity
- absolute change in blood glucose at Day 6 (ZDF diabetic rats): substantial reduction of their blood sugar
- breast cancer (4T1) proliferation in allograft (breast cancer (4T1)): retarded breast cancer (4T1) proliferation
- prostate cancer cell (22Rv1) proliferation in vitro [15]: retarded prostate cancer cell (22Rv1) proliferation
- prostate cancer (22Rv1) proliferation in allograft (prostate cancer (22Rv1)): retarded prostate cancer (22Rv1) proliferation
- proliferation (MTT reduction, relative quantity to control) [16]: retards proliferation
